# The name of at least one read-out is uncertain.
# Experiment: Pharmacokinetics following PO administration to dogs (oxycodone in plasma)
smiles,measurement,value
"COc1ccc2c3c1O[C@H]1C(OC(=O)N(C)[C@@H](CNC(=O)[C@H](CCCNC(=N)N)NC(=O)CNC(C)=O)C(=O)N(C)CC(=O)O)=CC[C@@]4(O)[C@@H](C2)N(C)CC[C@]314 [Compound KC-7, N-1-[(S)-2-(oxycodone-6-enol-carbonyl-methyl-amino)-2-carbonyl-sarcosine-ethylamine]-arginine-glycine-acetate]",oxycodone Cmax and Tmax compared to administration of oxycodone,suppressed oxycodone Cmax and delayed oxycodone Tmax
